# Measured values as given in the supplement of paper PMC10032668.
# Chains of the proteins cited; added tags and fusions are not shown.
# EIF2B1, Q14232, UniProt Q14232, whole entry: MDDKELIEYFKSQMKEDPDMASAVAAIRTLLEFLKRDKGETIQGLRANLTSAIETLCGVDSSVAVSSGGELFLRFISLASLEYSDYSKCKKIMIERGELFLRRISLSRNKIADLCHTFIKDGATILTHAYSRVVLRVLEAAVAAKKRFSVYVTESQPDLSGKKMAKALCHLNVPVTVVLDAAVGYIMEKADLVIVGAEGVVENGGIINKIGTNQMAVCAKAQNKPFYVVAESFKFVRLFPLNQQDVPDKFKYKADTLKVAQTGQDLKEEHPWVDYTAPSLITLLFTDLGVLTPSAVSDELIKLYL
# ASL, P04424, UniProt P04424, whole entry: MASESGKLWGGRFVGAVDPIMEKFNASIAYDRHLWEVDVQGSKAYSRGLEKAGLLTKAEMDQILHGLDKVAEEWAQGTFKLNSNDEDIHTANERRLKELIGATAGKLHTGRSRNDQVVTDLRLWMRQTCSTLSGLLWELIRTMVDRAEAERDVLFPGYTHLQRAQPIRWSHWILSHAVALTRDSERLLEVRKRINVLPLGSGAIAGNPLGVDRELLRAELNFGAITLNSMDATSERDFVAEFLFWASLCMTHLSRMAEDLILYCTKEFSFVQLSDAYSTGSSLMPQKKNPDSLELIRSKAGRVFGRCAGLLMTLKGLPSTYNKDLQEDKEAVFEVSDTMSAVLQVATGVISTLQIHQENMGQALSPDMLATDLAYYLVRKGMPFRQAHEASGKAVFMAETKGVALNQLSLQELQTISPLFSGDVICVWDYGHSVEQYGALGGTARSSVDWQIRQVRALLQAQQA
# SNRPG, P62308, UniProt P62308, whole entry: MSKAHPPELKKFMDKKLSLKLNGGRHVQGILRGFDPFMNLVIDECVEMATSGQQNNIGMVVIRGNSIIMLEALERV
# TUBB6, Q9BUF5, UniProt Q9BUF5, whole entry: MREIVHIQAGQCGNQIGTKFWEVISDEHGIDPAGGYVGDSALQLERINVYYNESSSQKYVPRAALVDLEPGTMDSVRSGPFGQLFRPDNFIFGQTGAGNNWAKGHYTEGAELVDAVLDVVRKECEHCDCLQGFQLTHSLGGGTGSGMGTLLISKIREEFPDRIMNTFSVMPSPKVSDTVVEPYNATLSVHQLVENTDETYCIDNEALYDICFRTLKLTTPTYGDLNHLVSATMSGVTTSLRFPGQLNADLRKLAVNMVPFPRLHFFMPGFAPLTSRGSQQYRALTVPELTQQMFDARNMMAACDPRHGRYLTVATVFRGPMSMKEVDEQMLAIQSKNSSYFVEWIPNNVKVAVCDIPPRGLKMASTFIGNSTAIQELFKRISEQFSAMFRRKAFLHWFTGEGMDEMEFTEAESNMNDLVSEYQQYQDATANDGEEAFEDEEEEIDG
# HUWE1, Q7Z6Z7, UniProt Q7Z6Z7, whole entry: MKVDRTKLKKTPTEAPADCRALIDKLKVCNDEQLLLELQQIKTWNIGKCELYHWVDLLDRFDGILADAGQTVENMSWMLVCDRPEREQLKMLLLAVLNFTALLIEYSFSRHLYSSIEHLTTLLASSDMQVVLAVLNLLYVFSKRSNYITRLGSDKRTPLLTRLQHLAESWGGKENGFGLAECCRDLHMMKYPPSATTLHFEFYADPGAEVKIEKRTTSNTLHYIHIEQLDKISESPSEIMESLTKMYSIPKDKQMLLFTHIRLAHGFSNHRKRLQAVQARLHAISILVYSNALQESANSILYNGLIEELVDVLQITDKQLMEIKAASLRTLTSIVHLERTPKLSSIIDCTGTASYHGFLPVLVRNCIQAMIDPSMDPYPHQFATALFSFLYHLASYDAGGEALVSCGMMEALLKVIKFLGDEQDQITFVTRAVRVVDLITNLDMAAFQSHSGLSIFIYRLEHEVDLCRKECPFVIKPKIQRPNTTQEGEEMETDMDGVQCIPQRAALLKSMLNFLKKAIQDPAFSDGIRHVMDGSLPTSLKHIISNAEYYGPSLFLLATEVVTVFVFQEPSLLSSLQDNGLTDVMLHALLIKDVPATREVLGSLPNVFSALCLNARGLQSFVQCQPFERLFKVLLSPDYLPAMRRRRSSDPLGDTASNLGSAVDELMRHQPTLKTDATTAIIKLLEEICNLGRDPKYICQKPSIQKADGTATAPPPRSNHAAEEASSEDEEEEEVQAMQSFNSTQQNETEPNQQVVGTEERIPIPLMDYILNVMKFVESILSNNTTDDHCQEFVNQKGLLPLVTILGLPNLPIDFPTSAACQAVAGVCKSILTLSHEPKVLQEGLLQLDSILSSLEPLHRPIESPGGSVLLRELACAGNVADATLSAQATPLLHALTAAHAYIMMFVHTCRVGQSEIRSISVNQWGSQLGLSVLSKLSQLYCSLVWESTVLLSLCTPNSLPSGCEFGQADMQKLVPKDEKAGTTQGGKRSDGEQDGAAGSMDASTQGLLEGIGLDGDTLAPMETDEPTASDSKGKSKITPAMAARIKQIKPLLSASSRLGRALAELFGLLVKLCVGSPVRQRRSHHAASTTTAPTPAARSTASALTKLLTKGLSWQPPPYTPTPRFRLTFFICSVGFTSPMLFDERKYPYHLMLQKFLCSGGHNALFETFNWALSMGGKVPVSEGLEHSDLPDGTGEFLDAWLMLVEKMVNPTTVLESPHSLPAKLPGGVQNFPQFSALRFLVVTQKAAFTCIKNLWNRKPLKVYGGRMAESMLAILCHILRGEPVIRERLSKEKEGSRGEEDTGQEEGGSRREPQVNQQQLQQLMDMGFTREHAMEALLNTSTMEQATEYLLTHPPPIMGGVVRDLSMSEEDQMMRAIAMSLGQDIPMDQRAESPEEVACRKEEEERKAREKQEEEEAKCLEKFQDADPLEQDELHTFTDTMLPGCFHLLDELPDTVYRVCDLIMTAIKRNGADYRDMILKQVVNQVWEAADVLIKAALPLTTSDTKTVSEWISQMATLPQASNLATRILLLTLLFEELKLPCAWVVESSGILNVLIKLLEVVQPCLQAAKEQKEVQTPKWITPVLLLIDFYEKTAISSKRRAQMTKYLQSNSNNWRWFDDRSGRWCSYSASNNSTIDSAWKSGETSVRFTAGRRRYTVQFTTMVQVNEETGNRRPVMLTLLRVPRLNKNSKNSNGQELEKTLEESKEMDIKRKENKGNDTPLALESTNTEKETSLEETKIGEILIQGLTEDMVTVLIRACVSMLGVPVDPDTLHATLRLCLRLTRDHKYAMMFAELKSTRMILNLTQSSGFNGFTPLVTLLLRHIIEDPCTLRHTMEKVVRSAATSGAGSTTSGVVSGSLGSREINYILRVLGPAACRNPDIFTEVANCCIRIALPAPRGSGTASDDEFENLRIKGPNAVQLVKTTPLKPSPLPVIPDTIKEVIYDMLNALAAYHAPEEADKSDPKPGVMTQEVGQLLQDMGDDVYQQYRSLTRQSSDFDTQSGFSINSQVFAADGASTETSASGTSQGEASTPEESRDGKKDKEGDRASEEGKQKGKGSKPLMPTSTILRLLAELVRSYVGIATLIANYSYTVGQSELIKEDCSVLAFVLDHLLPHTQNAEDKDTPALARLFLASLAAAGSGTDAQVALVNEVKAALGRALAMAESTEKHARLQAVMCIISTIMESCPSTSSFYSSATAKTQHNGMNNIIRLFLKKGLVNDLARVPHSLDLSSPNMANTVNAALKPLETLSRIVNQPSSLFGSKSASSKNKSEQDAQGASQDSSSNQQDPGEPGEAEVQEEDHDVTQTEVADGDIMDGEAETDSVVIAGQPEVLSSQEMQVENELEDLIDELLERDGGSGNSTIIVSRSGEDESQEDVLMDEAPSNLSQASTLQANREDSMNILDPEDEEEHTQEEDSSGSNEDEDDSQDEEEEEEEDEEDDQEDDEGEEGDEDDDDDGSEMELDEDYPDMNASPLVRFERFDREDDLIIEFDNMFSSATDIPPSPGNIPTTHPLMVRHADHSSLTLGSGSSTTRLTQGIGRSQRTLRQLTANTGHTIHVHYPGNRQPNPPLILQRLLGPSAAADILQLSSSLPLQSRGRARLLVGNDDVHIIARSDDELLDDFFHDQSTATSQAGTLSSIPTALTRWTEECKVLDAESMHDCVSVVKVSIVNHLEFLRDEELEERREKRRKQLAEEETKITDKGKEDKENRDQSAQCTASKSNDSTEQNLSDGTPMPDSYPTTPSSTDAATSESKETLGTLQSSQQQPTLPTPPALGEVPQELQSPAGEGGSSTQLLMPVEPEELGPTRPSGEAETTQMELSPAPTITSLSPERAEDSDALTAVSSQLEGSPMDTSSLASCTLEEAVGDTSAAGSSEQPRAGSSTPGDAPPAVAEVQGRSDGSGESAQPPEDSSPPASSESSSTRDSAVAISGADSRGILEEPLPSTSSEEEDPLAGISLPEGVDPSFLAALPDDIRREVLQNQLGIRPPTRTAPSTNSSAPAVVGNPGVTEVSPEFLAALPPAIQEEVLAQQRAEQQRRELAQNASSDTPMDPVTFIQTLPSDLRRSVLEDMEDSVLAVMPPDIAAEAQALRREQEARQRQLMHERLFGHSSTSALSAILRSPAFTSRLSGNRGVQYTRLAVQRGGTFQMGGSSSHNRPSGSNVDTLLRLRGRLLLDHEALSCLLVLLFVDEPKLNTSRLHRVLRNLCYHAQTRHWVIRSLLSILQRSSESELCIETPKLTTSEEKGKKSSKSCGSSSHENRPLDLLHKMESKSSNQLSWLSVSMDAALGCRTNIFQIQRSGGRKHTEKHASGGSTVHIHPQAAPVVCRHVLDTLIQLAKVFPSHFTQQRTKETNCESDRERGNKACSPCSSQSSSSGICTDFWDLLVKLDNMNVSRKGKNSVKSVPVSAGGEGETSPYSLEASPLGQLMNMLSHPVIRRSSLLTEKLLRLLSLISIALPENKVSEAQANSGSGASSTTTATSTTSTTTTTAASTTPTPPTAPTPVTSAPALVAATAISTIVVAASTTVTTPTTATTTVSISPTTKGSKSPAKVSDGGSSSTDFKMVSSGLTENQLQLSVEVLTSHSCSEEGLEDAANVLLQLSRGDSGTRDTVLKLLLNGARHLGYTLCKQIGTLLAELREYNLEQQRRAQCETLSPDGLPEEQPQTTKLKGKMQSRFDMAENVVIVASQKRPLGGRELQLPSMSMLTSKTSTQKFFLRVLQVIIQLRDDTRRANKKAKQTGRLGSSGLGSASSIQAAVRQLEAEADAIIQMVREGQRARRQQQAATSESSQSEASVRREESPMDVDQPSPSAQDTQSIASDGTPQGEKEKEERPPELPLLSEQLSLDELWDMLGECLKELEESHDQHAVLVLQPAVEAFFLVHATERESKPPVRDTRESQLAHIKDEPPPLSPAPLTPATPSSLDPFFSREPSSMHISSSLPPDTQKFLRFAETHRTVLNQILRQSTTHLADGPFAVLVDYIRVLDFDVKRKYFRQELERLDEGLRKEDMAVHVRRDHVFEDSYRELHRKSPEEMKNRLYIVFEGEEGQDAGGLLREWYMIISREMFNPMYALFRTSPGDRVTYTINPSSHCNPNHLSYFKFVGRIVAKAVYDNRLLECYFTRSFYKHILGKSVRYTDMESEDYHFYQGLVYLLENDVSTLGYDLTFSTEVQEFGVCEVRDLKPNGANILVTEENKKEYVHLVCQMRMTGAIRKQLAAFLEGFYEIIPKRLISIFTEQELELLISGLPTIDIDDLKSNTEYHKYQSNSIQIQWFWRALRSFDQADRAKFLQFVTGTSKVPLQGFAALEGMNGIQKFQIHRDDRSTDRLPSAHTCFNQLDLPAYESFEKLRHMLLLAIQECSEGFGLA
# PSMD11, O00231, UniProt O00231, whole entry: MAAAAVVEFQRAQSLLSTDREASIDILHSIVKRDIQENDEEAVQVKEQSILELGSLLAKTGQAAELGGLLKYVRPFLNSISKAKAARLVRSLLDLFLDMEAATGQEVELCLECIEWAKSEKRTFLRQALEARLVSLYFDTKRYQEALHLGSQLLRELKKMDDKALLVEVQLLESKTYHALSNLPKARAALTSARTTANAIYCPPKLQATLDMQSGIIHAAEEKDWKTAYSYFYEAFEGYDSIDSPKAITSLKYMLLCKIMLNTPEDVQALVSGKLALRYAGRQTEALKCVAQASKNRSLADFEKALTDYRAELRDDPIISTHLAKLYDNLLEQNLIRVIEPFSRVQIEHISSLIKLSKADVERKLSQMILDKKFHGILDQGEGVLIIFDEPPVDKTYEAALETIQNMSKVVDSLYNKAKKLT
# The list shows a part of the results. The list holds hits alone, and they repeat only in part.
# Tests used:
# Experiment in all cases: PRISMA enrichment of interactor (LFQ) in peptide spot vs all other peptide spots (log2 fold change); higher = stronger / more specific binding of the interactor to the peptide
# ARMC6, Q6NXE6 = molecular target: ARMC6, Q6NXE6
# Experimental: (§1)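 PRISMA: 15-aa overlapping tiles (offset 8 aa) of 60 microproteins, plus SOS1/GLUT1 control peptides, were spot-synthesized on cellulose membranes in triplicate. Membranes were incubated with benzonase-treated HEK293T lysate, and bound proteins were identified by LC-MS/MS with LFQ. Enrichment is the log2 fold change of each protein in one spot versus all other spots. Only interactors passing the significance cutoff are listed.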
# CSNK2A1, P68400 = molecular target: CSNK2A1, P68400
# Experimental: as §1
# EIF2B1, Q14232 = molecular target: EIF2B1, Q14232
# Experimental: as §1
# NOL12, Q9UGY1 = molecular target: NOL12, Q9UGY1
# Experimental: as §1
# POLR2B, P30876 = molecular target: POLR2B, P30876
# Experimental: as §1
# POLRMT, O00411 = molecular target: POLRMT, O00411
# Experimental: as §1
# PSMD7, P51665 = molecular target: PSMD7, P51665
# Experimental: as §1
# RAB3GAP2, Q9H2M9 = molecular target: RAB3GAP2, Q9H2M9
# Experimental: as §1
# SDF2, Q99470 = molecular target: SDF2, Q99470
# Experimental: as §1
# ASL, P04424 = molecular target: ASL, P04424
# Experimental: as §1
# COPE, O14579 = molecular target: COPE, O14579
# Experimental: as §1
# COQ8A, Q8NI60 = molecular target: COQ8A, Q8NI60
# Experimental: as §1
# CPS1, P31327 = molecular target: CPS1, P31327
# Experimental: as §1
# DDX51, Q8N8A6 = molecular target: DDX51, Q8N8A6
# Experimental: as §1
# EI24, O14681 = molecular target: EI24, O14681
# Experimental: as §1
# FAM98A, Q8NCA5 = molecular target: FAM98A, Q8NCA5
# Experimental: as §1
# GYG1, P46976 = molecular target: GYG1, P46976
# Experimental: as §1
# HOXB6, P17509 = molecular target: HOXB6, P17509
# Experimental: as §1
# MRPS7, Q9Y2R9 = molecular target: MRPS7, Q9Y2R9
# Experimental: as §1
# PNISR, Q8TF01 = molecular target: PNISR, Q8TF01
# Experimental: as §1
# PRPF4, O43172 = molecular target: PRPF4, O43172
# Experimental: as §1
# RABL6, Q3YEC7 = molecular target: RABL6, Q3YEC7
# Experimental: as §1
# RTRAF, Q9Y224 = molecular target: RTRAF, Q9Y224
# Experimental: as §1
# SNRPG, P62308 = molecular target: SNRPG, P62308
# Experimental: as §1
# SRRM2, Q9UQ35 = molecular target: SRRM2, Q9UQ35
# Experimental: as §1
# TRAF7, Q6Q0C0 = molecular target: TRAF7, Q6Q0C0
# Experimental: as §1
# TUBB6, Q9BUF5 = molecular target: TUBB6, Q9BUF5
# Experimental: as §1
# WDR46, O15213 = molecular target: WDR46, O15213
# Experimental: as §1
# WTAP, Q15007 = molecular target: WTAP, Q15007
# Experimental: as §1
# ARL6IP5, O75915 = molecular target: ARL6IP5, O75915
# Experimental: as §1
# C19orf53, Q9UNZ5 = molecular target: C19orf53, Q9UNZ5
# Experimental: as §1
# CDC5L, Q99459 = molecular target: CDC5L, Q99459
# Experimental: as §1
# DOCK7, Q96N67 = molecular target: DOCK7, Q96N67
# Experimental: as §1
# EDF1, O60869 = molecular target: EDF1, O60869
# Experimental: as §1
# G3BP1, Q13283 = molecular target: G3BP1, Q13283
# Experimental: as §1
# GTPBP4, Q9BZE4 = molecular target: GTPBP4, Q9BZE4
# Experimental: as §1
# HUWE1, Q7Z6Z7 = molecular target: HUWE1, Q7Z6Z7
# Experimental: as §1
# NCAPG, Q9BPX3 = molecular target: NCAPG, Q9BPX3
# Experimental: as §1
# ODF2, Q5BJF6 = molecular target: ODF2, Q5BJF6
# Experimental: as §1
# PABPN1, Q86U42 = molecular target: PABPN1, Q86U42
# Experimental: as §1
# PEX11B, O96011 = molecular target: PEX11B, O96011
# Experimental: as §1
# PNO1, Q9NRX1 = molecular target: PNO1, Q9NRX1
# Experimental: as §1
# POLE, Q07864 = molecular target: POLE, Q07864
# Experimental: as §1
# PSMD11, O00231 = molecular target: PSMD11, O00231
# Experimental: as §1
# RBM33, Q96EV2 = molecular target: RBM33, Q96EV2
# Experimental: as §1
# RBMS1, P29558 = molecular target: RBMS1, P29558
# Experimental: as §1
# SLC30A7, Q8NEW0 = molecular target: SLC30A7, Q8NEW0
# Experimental: as §1
# SNX27, Q96L92 = molecular target: SNX27, Q96L92
# Experimental: as §1
# TEX264, Q9Y6I9 = molecular target: TEX264, Q9Y6I9
# Experimental: as §1
binder,measurement,setting,value
LETIQKKLAAKGLRD [NDUFB3],PRISMA enrichment of interactor (log2),"ARMC6, Q6NXE6",6.27
same,PRISMA enrichment of interactor (log2),"CSNK2A1, P68400",5.8
same,PRISMA enrichment of interactor (log2),"EIF2B1, Q14232",4.39
same,PRISMA enrichment of interactor (log2),"NOL12, Q9UGY1",10.5
same,PRISMA enrichment of interactor (log2),"POLR2B, P30876",4.81
same,PRISMA enrichment of interactor (log2),"POLRMT, O00411",5.23
same,PRISMA enrichment of interactor (log2),"PSMD7, P51665",5.64
same,PRISMA enrichment of interactor (log2),"RAB3GAP2, Q9H2M9",6.4
same,PRISMA enrichment of interactor (log2),"SDF2, Q99470",4.96
CRSLHHGPVAPLFLH [PSMB8-AS1],PRISMA enrichment of interactor (log2),"ASL, P04424",4.61
same,PRISMA enrichment of interactor (log2),"COPE, O14579",4.91
same,PRISMA enrichment of interactor (log2),"COQ8A, Q8NI60",4.38
same,PRISMA enrichment of interactor (log2),"CPS1, P31327",6.35
same,PRISMA enrichment of interactor (log2),"DDX51, Q8N8A6",5.76
same,PRISMA enrichment of interactor (log2),"EI24, O14681",6.41
same,PRISMA enrichment of interactor (log2),"FAM98A, Q8NCA5",5.12
same,PRISMA enrichment of interactor (log2),"GYG1, P46976",4.38
same,PRISMA enrichment of interactor (log2),"HOXB6, P17509",3.6
same,PRISMA enrichment of interactor (log2),"MRPS7, Q9Y2R9",7.23
same,PRISMA enrichment of interactor (log2),"PNISR, Q8TF01",4.51
same,PRISMA enrichment of interactor (log2),"PRPF4, O43172",5.85
same,PRISMA enrichment of interactor (log2),"RABL6, Q3YEC7",6.02
same,PRISMA enrichment of interactor (log2),"RTRAF, Q9Y224",5.5
same,PRISMA enrichment of interactor (log2),"SNRPG, P62308",5.56
same,PRISMA enrichment of interactor (log2),"SRRM2, Q9UQ35",6.18
same,PRISMA enrichment of interactor (log2),"TRAF7, Q6Q0C0",5.8
same,PRISMA enrichment of interactor (log2),"TUBB6, Q9BUF5",4.55
same,PRISMA enrichment of interactor (log2),"WDR46, O15213",7.73
same,PRISMA enrichment of interactor (log2),"WTAP, Q15007",4.44
MLPLPSQVGSRYLLS [CUL5],PRISMA enrichment of interactor (log2),"ARL6IP5, O75915",5.44
same,PRISMA enrichment of interactor (log2),"C19orf53, Q9UNZ5",6.88
same,PRISMA enrichment of interactor (log2),"CDC5L, Q99459",7.94
same,PRISMA enrichment of interactor (log2),"DOCK7, Q96N67",3.92
same,PRISMA enrichment of interactor (log2),"EDF1, O60869",6.26
same,PRISMA enrichment of interactor (log2),"G3BP1, Q13283",5.5
same,PRISMA enrichment of interactor (log2),"GTPBP4, Q9BZE4",6.44
same,PRISMA enrichment of interactor (log2),"HUWE1, Q7Z6Z7",9.97
same,PRISMA enrichment of interactor (log2),"NCAPG, Q9BPX3",5.81
same,PRISMA enrichment of interactor (log2),"ODF2, Q5BJF6",8.78
same,PRISMA enrichment of interactor (log2),"PABPN1, Q86U42",5.89
same,PRISMA enrichment of interactor (log2),"PEX11B, O96011",4.19
same,PRISMA enrichment of interactor (log2),"PNO1, Q9NRX1",4.99
same,PRISMA enrichment of interactor (log2),"POLE, Q07864",4.2
same,PRISMA enrichment of interactor (log2),"PSMD11, O00231",5.09
same,PRISMA enrichment of interactor (log2),"RBM33, Q96EV2",5.82
same,PRISMA enrichment of interactor (log2),"RBMS1, P29558",5.99
same,PRISMA enrichment of interactor (log2),"SLC30A7, Q8NEW0",7.97
same,PRISMA enrichment of interactor (log2),"SNX27, Q96L92",7.75
same,PRISMA enrichment of interactor (log2),"TEX264, Q9Y6I9",4.01

# No new results follow: entries from further up.
binder,measurement,setting,value
CRSLHHGPVAPLFLH [PSMB8-AS1],PRISMA enrichment of interactor (log2),"HOXB6, P17509",3.6
same,PRISMA enrichment of interactor (log2),"MRPS7, Q9Y2R9",7.23
same,PRISMA enrichment of interactor (log2),"PNISR, Q8TF01",4.51
